Assay results: US7408024B2, “Somatostatin antagonists” (The Administrators of the Tulane Educational Fund, priority 2001, dated 2008)
At least one structure is not confirmed: it was looked up by name or label, or the drawing left a doubt. Where a SMILES comes first, the peptide text is derived from it. Bridges are numbered along the chain shown (N, C = ends). [ ]: non-standard residue; d: D form. Phe(4-CF3) = N[C@@H](Cc1ccc(C(F)(F)F)cc1)C(=O)O; 2Nal = N[C@@H](Cc1ccc2ccccc2c1)C(=O)O; 3Pal = N[C@@H](Cc1cccnc1)C(=O)O; NMeK = CN[C@@H](CCCCN)C(=O)O

By UniProt entry, the sequences of proteins in these tests, tags left out. Where a name states a change or a piece, a line headed by the entry shows the natural chain unless it says otherwise.
UniProt P31391: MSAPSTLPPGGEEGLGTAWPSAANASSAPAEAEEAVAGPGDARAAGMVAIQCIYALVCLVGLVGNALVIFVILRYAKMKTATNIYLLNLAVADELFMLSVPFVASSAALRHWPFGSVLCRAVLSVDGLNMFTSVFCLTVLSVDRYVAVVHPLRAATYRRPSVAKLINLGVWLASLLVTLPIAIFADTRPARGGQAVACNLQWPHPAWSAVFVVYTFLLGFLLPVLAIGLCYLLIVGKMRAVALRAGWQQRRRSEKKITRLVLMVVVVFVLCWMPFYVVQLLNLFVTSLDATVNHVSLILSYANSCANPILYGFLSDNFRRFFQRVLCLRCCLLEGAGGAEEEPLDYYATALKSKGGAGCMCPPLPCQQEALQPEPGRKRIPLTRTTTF
UniProt P30874: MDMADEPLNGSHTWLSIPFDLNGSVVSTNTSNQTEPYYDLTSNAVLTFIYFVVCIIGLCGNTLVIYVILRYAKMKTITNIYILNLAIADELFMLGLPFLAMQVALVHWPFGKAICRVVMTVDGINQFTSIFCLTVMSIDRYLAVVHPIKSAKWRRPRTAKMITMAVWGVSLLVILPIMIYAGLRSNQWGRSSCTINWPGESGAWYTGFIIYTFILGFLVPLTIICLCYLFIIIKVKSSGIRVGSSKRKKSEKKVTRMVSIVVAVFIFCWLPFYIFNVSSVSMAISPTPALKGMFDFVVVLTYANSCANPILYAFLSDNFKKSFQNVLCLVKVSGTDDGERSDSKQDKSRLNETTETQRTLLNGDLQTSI
UniProt P32745: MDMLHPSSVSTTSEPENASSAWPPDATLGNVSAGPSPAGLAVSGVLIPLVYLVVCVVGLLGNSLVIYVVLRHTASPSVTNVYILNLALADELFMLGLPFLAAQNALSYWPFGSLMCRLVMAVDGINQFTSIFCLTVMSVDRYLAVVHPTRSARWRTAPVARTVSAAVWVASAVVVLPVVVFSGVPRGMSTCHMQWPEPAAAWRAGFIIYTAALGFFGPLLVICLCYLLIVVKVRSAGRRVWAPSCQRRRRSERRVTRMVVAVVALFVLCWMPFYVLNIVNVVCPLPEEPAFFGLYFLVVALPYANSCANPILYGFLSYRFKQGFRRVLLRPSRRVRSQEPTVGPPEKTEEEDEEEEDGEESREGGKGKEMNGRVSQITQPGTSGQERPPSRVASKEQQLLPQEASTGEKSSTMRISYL
UniProt P30872: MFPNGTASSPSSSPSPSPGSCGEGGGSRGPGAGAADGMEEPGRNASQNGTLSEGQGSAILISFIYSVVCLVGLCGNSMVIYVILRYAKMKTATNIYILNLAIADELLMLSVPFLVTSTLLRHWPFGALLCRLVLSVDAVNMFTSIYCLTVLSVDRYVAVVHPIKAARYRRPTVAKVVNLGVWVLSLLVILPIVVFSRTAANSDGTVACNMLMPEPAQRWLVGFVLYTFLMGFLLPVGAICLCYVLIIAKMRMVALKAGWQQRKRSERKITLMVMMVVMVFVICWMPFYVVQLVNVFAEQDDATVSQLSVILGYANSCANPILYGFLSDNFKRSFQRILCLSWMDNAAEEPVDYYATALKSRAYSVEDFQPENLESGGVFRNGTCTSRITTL

Tests used:
hsst4 = target: T1, hsst4 (Homo sapiens, UniProt P31391); experiment: Radioligand binding, cloned human sst4 receptor (CHO-K1 membranes); details: [125I]Tyr11-SRIF, CHO-K1 cell membranes; single values = one binding experiment; read-out: K1 ± SEM hsst4
T1 construct: each containing the entire coding region of the full-length receptors; expressed in transfected cells
Source text: (§1) The genomic clones containing the human somatostatin receptors (hsstr1-5) (Yamada, Y., et al. al., Proc. Natl. Acad. Sci. USA. 1992, 89, 251-255; Yasuda, K., et al., J. Biol. Chem. 1992, 267, 20422-20428; Yamada, Y., et al., Mol. Pharmacol. 1992, 42, 2136-2142; Rohrer, L., et al., Proc. Natl. Acad. Sci. USA. 1993, 90, 4196-4200.), were kindly provided by Dr. Graeme I. Bell (University of Chicago). The hsstr1, hsstr2, hsstr3, hsstr4 and hsstr5 cDNAs were isolated as a 1.5-kb PstI-XmnI fragment, 1.7-kb BamHI-HindIII fragment, 2.0-kb NcoI-HindIII fragment, 1.4-kb NheI-NdeI fragment, and a 1.2-kb HindIII-XbaI fragment, respectively, each containing the entire coding region of the full-length receptors. These fragments were independently subdloned into the corresponding restriction endonuclease sites in the mammalian expression vector pCMV5, downstream from the human cytomegalovirus (CMV) promoter, to produce the expression plasmids pCMV5/hsstr1, pCMV5/hsstr2, pCMV5/hsstr3, pCMV5/hsstr4 and pCMV5/hsstr5. […]
(§2) Transfections were performed by the calcium phosphate method. […] Membranes were prepared from the isolated clones and hsstr expression was initially assessed for binding with [^125I]Tyr^11-SRIF and [^125]IMK-678 (for sstr2). […]

hsst2 = target: T2, hsst2 (Homo sapiens, UniProt P30874); experiment: Radioligand binding, cloned human sst2 receptor (CHO-K1 membranes); details: [125I]MK-678, CHO-K1 cell membranes; single values = one binding experiment; read-out: K1 ± SEM hsst2
T2 construct: each containing the entire coding region of the full-length receptors; expressed in transfected cells
Source text: as §1, §2

hsst3 = target: T3, hsst3 (Homo sapiens, UniProt P32745); experiment: Radioligand binding, cloned human sst3 receptor (CHO-K1 membranes); details: [125I]Tyr11-SRIF, CHO-K1 cell membranes; single values = one binding experiment; read-out: K1 ± SEM hsst3
T3 construct: each containing the entire coding region of the full-length receptors; expressed in transfected cells
Source text: as §1, §2

hsst1 = target: T4, hsst1 (Homo sapiens, UniProt P30872); experiment: Radioligand binding, cloned human sst1 receptor (CHO-K1 membranes); details: [125I]Tyr11-SRIF, CHO-K1 cell membranes; single values = one binding experiment; read-out: K1 ± SEM hsst1
T4 construct: each containing the entire coding region of the full-length receptors; expressed in transfected cells
Source text: as §1, §2

Q: For `C[C@@H](O)[C@@H]1NC(=O)[C@H](CCCCN)N(C)C(=O)[C@@H](Cc2c[nH]c3ccccc23)NC(=O)[C@H](Cc2cccnc2)NC(=O)[C@H](NC(=O)[C@@H](N)Cc2ccc(C(F)(F)F)cc2)CSSC[C@@H](C(=O)N[C@@H](Cc2ccc3ccccc3c2)C(N)=O)NC1=O` [Peptide 13, Tfm-cyclo(DCys-3-Pal-DTrp-NMeLys-Thr-Cys)-2-Nal-NH2] (H-[Phe(4-CF3)][dC][3Pal][dW][NMeK]TC[2Nal]-NH2; disulfide 2-7), which Ki (hsst4) is on record?
A: The Ki was 1250 nM.

Q: And the Ki (hsst2)?
A: The Ki was 11.3 nM.

Q: What about the Ki (hsst3) of the same compound?
A: The Ki was 40.2 nM.

Q: And the Ki (hsst1)?
A: The Ki was 1000 nM.
